Results deposited as PubChem BioAssay AID652272 (Drosophila RNAi Screening Center, 2013)

Test: 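Genes whose knock-down decreases or increases Hedgehog reporter output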 (primary screen)
Cells: Drosophila clone 8 (Cl8) cells
Knock-down reagent: long dsRNA against Drosophila genes
Read-out: 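Firefly light from a Hedgehog-responsive ptc promoter reporter and Renilla reference light, both read on a plate reader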
Scale: firefly Hh reporter signal: higher = more ptc reporter light; Renilla reference signal: higher = more Renilla control light
Active means: 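Called a hit if the two-replicate mean z-score lies below -2 or above +3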
Meaning of the calls: active = hit: reporter lowered or raised; inactive = not a hit
The screen tested about 21,000 reagents; shown is a random part of those with a known target gene and a result. Of all reagents, 503 (2.4%) got an active call. 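Raw plate light values, not normalised; calls rest on replicate z-scores that were not deposited; hits include reporter decreases as well as increases.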 A number with no mark means an inactive call. A plus sign joins genes that one reagent is predicted to hit. Reagent sequences are not shown. The record does not give: the amount of reagent, the time to read-out.

Silencing of Pmm2 (GeneID 39436) [DRSC09780] resulted in: firefly Hh reporter signal, replicate 1 = 42662; firefly Hh reporter signal, replicate 2 = 33796; firefly Hh reporter signal, replicate 3 = 63680; Renilla reference signal, replicate 1 = 3452; Renilla reference signal, replicate 2 = 4582.
CG2100 (GeneID 40707) [DRSC12303] showed firefly Hh reporter signal, replicate 1 = 1.10e5; firefly Hh reporter signal, replicate 2 = 84024; Renilla reference signal, replicate 1 = 4715; Renilla reference signal, replicate 2 = 3386.
Knock-down of Edem2 (GeneID 34714) [DRSC02877] gave: firefly Hh reporter signal, replicate 1 = 2.16e5; firefly Hh reporter signal, replicate 2 = 88336; Renilla reference signal, replicate 1 = 5657; Renilla reference signal, replicate 2 = 7121.
After knock-down of CG34315 + Orc3 [DRSC07642], the screen gave firefly Hh reporter signal, replicate 1 = 1.16e5; firefly Hh reporter signal, replicate 2 = 41708; Renilla reference signal, replicate 1 = 4249; Renilla reference signal, replicate 2 = 672.
Silencing of CG1941 (GeneID 35718) [DRSC06802] resulted in: firefly Hh reporter signal, replicate 1 = 82070; firefly Hh reporter signal, replicate 2 = 45864; Renilla reference signal, replicate 1 = 1812; Renilla reference signal, replicate 2 = 3468.
CG8314 (GeneID 36757) [DRSC07144] gave firefly Hh reporter signal, replicate 1 = 72582; firefly Hh reporter signal, replicate 2 = 84477; Renilla reference signal, replicate 1 = 4134; Renilla reference signal, replicate 2 = 3545.
For CG10486 (GeneID 38664) [DRSC09735], the entry reads firefly Hh reporter signal, replicate 1 = 62166; firefly Hh reporter signal, replicate 2 = 43617; Renilla reference signal, replicate 1 = 6677; Renilla reference signal, replicate 2 = 3446.
With knock-down of Sems (GeneID 40315) [DRSC11626] the results were firefly Hh reporter signal, replicate 1 = 1.39e5; firefly Hh reporter signal, replicate 2 = 1.45e5; Renilla reference signal, replicate 1 = 5416; Renilla reference signal, replicate 2 = 4439.

Already shown: 2 of the entries above.
CG2100 (GeneID 40707) [DRSC12303] — firefly Hh reporter signal, replicate 1: 1.10e5; firefly Hh reporter signal, replicate 2: 84024; Renilla reference signal, replicate 1: 4715; Renilla reference signal, replicate 2: 3386
Edem2 (GeneID 34714) [DRSC02877] — firefly Hh reporter signal, replicate 1: 2.16e5; firefly Hh reporter signal, replicate 2: 88336; Renilla reference signal, replicate 1: 5657; Renilla reference signal, replicate 2: 7121

More records:
With knock-down of CG11977 (GeneID 41076) [DRSC14454], the record shows firefly Hh reporter signal, replicate 1 = 62816; firefly Hh reporter signal, replicate 2 = 91676; Renilla reference signal, replicate 1 = 3201; Renilla reference signal, replicate 2 = 3075.
After knock-down of Kpc1 (GeneID 41826) [DRSC16107], the record shows firefly Hh reporter signal, replicate 1 = 1.52e5; firefly Hh reporter signal, replicate 2 = 1.26e5; Renilla reference signal, replicate 1 = 6240; Renilla reference signal, replicate 2 = 5319.
DNAlig1 (GeneID 37791) [DRSC04518] showed firefly Hh reporter signal, replicate 1 = 58177 (active); firefly Hh reporter signal, replicate 2 = 36408; Renilla reference signal, replicate 1 = 3865; Renilla reference signal, replicate 2 = 2138.
After knock-down of CG32189 (GeneID 317902) [DRSC09511], the record shows firefly Hh reporter signal, replicate 1 = 2.30e5; Renilla reference signal, replicate 1 = 5472.
